Results published in the supplement of paper PMC7666118.
The list shows a part of the results.

Sequences of proteins named here, by UniProt entry; tags and fusion partners are left off. A change or cut given only in a name is not applied to a line headed by its entry.
UniProt O00161: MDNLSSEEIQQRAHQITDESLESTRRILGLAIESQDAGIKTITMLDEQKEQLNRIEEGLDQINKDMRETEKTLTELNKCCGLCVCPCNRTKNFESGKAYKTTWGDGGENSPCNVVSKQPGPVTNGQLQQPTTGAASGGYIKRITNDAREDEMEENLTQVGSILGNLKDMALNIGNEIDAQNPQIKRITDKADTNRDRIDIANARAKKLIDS
UniProt P62316, whole entry: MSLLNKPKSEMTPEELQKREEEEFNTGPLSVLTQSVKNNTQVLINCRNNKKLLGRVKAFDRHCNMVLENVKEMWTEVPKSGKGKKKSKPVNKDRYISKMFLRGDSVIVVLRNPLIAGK
UniProt Q96H20: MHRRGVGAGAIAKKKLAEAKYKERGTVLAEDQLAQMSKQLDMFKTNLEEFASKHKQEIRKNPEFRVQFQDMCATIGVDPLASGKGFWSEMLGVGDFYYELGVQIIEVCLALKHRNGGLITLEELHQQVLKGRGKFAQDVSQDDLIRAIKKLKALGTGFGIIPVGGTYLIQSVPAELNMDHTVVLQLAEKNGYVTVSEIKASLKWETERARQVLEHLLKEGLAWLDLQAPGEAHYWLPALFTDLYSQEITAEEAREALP
UniProt O94804: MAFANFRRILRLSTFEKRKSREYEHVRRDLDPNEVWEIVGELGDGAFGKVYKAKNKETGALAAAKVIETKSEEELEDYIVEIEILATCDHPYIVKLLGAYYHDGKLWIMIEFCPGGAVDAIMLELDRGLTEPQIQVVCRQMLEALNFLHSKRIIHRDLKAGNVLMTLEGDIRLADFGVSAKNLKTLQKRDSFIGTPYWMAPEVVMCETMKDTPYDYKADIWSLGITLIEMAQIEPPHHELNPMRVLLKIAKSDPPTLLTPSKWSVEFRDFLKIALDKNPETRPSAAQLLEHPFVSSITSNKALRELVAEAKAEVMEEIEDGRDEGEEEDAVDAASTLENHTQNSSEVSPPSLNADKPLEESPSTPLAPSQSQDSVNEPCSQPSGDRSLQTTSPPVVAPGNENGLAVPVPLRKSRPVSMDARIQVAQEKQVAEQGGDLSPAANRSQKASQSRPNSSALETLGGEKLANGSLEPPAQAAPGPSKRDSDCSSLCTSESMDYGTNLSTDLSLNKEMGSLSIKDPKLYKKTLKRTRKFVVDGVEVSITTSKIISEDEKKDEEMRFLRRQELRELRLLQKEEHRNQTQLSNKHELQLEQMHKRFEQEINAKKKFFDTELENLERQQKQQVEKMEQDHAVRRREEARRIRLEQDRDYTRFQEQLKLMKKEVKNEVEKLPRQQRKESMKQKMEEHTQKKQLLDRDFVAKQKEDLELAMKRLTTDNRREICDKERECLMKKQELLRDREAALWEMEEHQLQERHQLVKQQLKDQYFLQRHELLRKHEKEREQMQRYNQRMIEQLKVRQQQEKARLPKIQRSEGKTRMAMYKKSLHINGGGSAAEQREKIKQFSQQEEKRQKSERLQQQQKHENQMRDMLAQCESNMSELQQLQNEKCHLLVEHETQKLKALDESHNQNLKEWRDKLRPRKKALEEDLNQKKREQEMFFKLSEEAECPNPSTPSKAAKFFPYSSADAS
UniProt P09012, whole entry: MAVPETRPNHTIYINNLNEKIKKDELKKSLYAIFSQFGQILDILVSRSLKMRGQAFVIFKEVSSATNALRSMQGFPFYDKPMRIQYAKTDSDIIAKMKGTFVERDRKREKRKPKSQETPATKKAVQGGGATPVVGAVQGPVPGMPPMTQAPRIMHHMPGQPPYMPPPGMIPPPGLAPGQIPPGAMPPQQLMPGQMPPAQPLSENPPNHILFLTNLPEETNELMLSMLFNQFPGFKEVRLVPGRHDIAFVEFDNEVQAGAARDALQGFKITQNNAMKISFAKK
UniProt Q5T5C0: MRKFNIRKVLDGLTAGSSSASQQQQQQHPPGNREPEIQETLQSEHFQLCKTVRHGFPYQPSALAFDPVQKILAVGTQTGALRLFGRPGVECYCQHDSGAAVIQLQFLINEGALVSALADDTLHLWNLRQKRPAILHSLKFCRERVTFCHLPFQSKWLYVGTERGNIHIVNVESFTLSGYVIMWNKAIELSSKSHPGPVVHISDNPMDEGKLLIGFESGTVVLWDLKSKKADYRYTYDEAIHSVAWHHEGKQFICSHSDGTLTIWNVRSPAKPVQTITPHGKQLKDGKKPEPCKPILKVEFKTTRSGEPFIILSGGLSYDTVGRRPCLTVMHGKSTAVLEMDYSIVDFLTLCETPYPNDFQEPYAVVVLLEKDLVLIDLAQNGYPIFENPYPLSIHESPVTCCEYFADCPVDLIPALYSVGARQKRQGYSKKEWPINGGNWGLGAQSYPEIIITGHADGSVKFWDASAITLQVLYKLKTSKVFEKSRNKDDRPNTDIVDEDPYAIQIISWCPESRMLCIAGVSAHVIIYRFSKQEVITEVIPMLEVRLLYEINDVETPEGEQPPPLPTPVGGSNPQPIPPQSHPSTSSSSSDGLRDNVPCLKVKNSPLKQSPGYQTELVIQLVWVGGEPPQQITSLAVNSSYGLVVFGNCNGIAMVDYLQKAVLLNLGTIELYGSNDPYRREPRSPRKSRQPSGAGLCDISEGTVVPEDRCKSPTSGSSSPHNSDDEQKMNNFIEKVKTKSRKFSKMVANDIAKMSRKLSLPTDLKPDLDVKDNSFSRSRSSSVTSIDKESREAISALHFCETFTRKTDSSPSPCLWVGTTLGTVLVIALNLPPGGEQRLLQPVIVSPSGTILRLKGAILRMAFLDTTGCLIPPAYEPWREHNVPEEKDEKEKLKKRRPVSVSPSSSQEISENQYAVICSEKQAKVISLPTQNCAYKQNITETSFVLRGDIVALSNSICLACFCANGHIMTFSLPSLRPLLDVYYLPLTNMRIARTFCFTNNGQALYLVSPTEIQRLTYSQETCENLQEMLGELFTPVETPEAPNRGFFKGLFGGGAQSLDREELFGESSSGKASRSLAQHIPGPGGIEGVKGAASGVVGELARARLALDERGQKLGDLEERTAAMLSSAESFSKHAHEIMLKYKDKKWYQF
UniProt Q13188: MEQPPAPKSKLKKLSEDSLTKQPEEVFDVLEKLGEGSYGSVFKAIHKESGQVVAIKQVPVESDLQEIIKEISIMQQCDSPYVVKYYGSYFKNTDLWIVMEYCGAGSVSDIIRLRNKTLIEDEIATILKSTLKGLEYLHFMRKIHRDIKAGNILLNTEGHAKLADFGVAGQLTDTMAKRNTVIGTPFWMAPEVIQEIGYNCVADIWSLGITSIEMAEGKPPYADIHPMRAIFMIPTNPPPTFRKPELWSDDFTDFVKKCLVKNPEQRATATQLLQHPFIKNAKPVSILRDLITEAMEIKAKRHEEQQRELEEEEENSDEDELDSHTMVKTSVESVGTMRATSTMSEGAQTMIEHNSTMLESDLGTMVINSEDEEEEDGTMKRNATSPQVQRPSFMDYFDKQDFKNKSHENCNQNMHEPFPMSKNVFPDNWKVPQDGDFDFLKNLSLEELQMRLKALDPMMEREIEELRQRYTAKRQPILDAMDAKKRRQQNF
UniProt Q96DI7: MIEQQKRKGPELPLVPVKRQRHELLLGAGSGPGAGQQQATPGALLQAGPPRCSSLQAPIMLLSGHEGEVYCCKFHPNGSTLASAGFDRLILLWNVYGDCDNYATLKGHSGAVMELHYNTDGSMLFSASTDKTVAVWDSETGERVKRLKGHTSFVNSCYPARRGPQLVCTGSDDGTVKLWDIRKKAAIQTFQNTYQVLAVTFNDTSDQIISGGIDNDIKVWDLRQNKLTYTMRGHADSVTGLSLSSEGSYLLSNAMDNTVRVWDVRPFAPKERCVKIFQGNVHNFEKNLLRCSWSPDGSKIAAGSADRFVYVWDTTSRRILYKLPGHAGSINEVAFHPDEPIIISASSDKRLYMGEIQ
UniProt Q9Y5X3: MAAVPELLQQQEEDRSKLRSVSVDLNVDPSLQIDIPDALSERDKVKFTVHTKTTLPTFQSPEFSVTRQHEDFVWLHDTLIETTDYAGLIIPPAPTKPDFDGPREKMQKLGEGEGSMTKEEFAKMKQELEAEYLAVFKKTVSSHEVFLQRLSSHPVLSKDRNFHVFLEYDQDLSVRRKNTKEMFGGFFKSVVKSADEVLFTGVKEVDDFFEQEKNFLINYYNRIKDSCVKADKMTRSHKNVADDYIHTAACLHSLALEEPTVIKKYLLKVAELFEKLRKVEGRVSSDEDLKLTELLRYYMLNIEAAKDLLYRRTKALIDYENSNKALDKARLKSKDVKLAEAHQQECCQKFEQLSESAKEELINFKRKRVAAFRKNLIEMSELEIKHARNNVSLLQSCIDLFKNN
UniProt Q13277: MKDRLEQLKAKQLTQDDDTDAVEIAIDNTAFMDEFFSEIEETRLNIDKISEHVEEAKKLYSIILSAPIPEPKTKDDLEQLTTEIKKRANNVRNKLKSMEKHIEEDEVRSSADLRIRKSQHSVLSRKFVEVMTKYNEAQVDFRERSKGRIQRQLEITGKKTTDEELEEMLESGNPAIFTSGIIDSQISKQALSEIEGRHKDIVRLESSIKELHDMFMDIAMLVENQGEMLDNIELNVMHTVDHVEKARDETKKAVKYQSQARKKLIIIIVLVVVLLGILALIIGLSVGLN
UniProt Q92925, whole entry: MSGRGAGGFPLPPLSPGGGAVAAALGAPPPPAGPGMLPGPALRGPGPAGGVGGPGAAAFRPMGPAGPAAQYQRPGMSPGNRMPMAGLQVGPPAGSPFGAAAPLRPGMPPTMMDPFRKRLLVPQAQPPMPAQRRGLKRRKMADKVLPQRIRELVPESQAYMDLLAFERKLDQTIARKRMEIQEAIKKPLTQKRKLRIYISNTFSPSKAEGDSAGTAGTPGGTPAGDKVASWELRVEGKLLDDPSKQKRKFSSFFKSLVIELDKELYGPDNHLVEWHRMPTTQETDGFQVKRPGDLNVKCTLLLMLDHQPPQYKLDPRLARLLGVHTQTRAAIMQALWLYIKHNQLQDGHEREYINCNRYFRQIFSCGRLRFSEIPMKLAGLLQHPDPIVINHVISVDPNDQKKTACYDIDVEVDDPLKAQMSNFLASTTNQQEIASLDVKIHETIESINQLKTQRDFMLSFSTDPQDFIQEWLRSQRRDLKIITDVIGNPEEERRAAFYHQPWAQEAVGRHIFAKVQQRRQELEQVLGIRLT
UniProt Q9H8P0: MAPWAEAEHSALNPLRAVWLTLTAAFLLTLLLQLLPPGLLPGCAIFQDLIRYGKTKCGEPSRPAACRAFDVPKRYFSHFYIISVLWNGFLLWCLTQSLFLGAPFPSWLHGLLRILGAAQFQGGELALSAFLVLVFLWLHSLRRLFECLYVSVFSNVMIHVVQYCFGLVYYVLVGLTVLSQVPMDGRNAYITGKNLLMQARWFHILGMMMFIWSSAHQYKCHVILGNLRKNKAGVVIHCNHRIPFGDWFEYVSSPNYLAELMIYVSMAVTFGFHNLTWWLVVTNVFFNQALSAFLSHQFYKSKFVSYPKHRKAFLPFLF
UniProt Q9NQZ5: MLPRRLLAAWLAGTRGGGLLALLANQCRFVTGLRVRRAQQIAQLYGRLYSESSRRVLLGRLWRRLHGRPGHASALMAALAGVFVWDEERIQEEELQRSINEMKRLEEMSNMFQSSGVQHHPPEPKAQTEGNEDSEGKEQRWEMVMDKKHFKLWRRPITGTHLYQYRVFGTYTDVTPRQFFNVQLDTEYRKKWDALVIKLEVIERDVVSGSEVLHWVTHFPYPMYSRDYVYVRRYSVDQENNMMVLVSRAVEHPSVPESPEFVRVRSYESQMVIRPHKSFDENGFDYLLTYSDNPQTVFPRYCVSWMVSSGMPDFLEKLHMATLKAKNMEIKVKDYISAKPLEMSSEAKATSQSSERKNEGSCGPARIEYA
UniProt Q9BVQ7: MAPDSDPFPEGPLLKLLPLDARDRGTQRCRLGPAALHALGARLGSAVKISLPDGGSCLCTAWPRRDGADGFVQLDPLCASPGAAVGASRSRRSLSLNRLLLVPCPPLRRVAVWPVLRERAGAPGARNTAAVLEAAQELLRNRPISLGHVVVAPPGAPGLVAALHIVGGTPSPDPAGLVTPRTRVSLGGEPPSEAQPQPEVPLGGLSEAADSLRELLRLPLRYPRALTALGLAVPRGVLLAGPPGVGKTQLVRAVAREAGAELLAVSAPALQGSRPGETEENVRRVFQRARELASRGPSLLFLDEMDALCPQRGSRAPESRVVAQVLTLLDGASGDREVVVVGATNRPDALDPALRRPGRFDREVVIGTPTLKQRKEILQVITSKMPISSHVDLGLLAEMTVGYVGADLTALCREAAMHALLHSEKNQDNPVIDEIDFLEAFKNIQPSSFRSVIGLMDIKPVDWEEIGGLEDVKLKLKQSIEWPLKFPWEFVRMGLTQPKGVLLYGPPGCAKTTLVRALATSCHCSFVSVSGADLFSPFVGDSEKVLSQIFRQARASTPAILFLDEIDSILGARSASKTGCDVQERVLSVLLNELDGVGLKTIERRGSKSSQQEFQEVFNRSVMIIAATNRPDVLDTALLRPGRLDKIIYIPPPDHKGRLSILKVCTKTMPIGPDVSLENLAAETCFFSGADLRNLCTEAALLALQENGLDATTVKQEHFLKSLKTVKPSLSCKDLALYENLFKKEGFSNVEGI

The targets below were run with COc1ccc(Cn2ccc3ccc(C(=O)NO)cc32)cc1 (assay: dose-dependent thermal stabilisation call (2D-TPP, DLPTP, 10% FDR) (binary (1 = stabilised)); higher = stabilised by the compound). Conditions: system: HL-60 intact cells; concentration range 0.04-10 µM.

Row | Target | dose-dependent thermal stabilisation call
1 | SPTAN1 (UniProt Q13813) | inactive: 0
2 | STK11 (UniProt Q15831) | inactive: 0
3 | STX18 (UniProt Q9P2W9) | inactive: 0
4 | SNAP23 (UniProt O00161) | active: 1
5 | ST14 (UniProt Q9Y5Y6) | inactive: 0
6 | SNRPD2 (UniProt P62316) | inactive: 0
7 | STAT3 (UniProt P40763) | inactive: 0
8 | SNF8 (UniProt Q96H20) | inactive: 0
9 | SMAD4 (UniProt Q13485) | inactive: 0
10 | SMC5 (UniProt Q8IY18) | inactive: 0
11 | STK10 (UniProt O94804) | inactive: 0
12 | SMARCA4 (UniProt P51532) | inactive: 0
13 | SNRPA (UniProt P09012) | inactive: 0
14 | SNX6 (UniProt Q9UNH7) | inactive: 0
15 | SLC9A3R1 (UniProt O14745) | inactive: 0
16 | STXBP5 (UniProt Q5T5C0) | inactive: 0
17 | SNX1 (UniProt Q13596) | inactive: 0
18 | STK3 (UniProt Q13188) | inactive: 0
19 | STK39 (UniProt Q9UEW8) | inactive: 0

Quoted at random: three records from the list, in no set order.
Row | Target | dose-dependent thermal stabilisation call
9 | SMAD4 (UniProt Q13485) | inactive: 0
1 | SPTAN1 (UniProt Q13813) | inactive: 0
12 | SMARCA4 (UniProt P51532) | inactive: 0

The listing continues:

Row | Target | dose-dependent thermal stabilisation call
20 | STAM2 (UniProt O75886) | inactive: 0
21 | SPPL2A (UniProt Q8TCT8) | inactive: 0
22 | SNAP29 (UniProt O95721) | inactive: 0
23 | SPG21 (UniProt Q9NZD8) | inactive: 0
24 | TAF5 (UniProt Q15542) | inactive: 0
25 | SNRNP40 (UniProt Q96DI7) | inactive: 0
26 | SNX5 (UniProt Q9Y5X3) | inactive: 0
27 | STX3 (UniProt Q13277) | inactive: 0
28 | STK38 (UniProt Q15208) | inactive: 0
29 | STX8 (UniProt Q9UNK0) | inactive: 0
30 | SMARCC2 (UniProt Q8TAQ2) | inactive: 0
31 | SMARCD2 (UniProt Q92925) | inactive: 0
32 | SNRNP27 (UniProt Q8WVK2) | inactive: 0
33 | SLC9A6 (UniProt Q92581) | inactive: 0
34 | STAT5B (UniProt P51692) | inactive: 0
35 | SRD5A3 (UniProt Q9H8P0) | inactive: 0
36 | STARD7 (UniProt Q9NQZ5) | inactive: 0
37 | SMEK1 (UniProt Q6IN85) | inactive: 0
38 | SPATA5L1 (UniProt Q9BVQ7) | inactive: 0
